Results are given in words; binding and its absence hold for the method and conditions named. In cells and extracts the contact can be indirect. Some binding calls cover weakened binding; strength is not graded here. For part of these data: Sequences can lack the tags named with a protein.
How the values were obtained:
Experiment in all cases: co-IP; HEK293T lysates in co-IP buffer (50 mM Tris-HCl pH 7.4, 150 mM NaCl, 1% NP-40, 1 mM EDTA, 5% glycerol), mouse anti-Flag beads at 4°C overnight, Western blot; for ARM-TIR also with USP13 OE, USP13 KD (siRNA cocktail) or USP13^AE OE
[1] = biological target: T1, USP13-Flag (human), Q92995; details: remark: other sources report otherwise
T1 chain: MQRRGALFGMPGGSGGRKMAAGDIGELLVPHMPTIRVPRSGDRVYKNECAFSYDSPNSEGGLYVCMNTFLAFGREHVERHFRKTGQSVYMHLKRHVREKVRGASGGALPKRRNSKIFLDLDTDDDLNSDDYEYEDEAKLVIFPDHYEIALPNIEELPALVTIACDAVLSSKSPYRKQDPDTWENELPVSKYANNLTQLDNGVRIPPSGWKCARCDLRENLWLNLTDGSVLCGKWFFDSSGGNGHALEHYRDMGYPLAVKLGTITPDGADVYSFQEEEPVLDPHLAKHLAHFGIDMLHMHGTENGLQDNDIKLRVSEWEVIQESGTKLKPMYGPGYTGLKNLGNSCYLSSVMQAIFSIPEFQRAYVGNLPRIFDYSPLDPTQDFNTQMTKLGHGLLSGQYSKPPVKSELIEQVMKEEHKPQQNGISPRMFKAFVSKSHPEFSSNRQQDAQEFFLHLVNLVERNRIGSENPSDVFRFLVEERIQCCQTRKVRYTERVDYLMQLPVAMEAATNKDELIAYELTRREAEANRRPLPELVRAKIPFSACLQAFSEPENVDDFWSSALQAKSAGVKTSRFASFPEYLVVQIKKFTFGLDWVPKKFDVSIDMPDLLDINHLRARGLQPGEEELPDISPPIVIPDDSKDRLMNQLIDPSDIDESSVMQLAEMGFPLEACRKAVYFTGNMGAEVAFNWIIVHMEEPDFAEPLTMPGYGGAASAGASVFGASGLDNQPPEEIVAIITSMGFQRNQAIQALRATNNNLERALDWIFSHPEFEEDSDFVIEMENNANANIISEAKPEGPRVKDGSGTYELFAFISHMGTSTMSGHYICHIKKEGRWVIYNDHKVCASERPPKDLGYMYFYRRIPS

The chains behind the UniProt entries cited, without tags or fusion partners.
UniProt Q9UKV5: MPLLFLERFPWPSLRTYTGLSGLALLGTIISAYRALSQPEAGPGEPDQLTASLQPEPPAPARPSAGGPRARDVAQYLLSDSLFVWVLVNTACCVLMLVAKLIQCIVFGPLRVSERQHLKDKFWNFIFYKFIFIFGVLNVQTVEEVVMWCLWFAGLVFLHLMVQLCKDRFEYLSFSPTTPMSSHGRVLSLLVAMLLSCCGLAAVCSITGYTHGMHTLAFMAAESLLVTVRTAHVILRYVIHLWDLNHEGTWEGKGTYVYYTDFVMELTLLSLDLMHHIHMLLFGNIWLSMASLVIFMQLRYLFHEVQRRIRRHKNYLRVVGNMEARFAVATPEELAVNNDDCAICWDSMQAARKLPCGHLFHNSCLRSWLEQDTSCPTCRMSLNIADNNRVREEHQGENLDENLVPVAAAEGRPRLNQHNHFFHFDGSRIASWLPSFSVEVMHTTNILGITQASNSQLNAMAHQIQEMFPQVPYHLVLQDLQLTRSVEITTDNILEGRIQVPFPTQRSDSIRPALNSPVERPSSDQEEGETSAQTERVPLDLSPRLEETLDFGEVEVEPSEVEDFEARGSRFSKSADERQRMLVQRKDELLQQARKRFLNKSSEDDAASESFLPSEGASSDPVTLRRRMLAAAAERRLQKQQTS

GP78-Flag (human) = GP78-Flag (human) (UniProt Q9UKV5)
[2] = biological target: T2, SARM1-Flag (human), Q6SZW1; details: remark: other sources report otherwise
T2 chain: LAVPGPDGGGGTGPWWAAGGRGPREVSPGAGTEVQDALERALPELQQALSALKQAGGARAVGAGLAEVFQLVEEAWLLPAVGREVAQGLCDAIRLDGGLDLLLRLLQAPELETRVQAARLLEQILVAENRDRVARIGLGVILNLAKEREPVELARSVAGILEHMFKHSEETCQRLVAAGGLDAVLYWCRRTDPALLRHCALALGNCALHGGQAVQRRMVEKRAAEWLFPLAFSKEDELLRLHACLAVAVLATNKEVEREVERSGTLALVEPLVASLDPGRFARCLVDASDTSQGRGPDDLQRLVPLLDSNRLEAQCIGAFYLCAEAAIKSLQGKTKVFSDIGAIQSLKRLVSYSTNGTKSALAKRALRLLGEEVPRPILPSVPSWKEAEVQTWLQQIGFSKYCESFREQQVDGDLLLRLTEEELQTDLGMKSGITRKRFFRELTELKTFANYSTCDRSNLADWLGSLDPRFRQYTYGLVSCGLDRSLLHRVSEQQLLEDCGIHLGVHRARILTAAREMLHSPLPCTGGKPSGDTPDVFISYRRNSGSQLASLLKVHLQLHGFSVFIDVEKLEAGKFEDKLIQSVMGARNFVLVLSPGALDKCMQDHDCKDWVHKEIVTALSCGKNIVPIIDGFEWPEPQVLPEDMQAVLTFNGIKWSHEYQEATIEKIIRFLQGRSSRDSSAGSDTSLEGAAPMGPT

B1: endogenous SARM1 (HEK293T), Q6SZW1 28-724 (protein)
chain: LAVPGPDGGGGTGPWWAAGGRGPREVSPGAGTEVQDALERALPELQQALSALKQAGGARAVGAGLAEVFQLVEEAWLLPAVGREVAQGLCDAIRLDGGLDLLLRLLQAPELETRVQAARLLEQILVAENRDRVARIGLGVILNLAKEREPVELARSVAGILEHMFKHSEETCQRLVAAGGLDAVLYWCRRTDPALLRHCALALGNCALHGGQAVQRRMVEKRAAEWLFPLAFSKEDELLRLHACLAVAVLATNKEVEREVERSGTLALVEPLVASLDPGRFARCLVDASDTSQGRGPDDLQRLVPLLDSNRLEAQCIGAFYLCAEAAIKSLQGKTKVFSDIGAIQSLKRLVSYSTNGTKSALAKRALRLLGEEVPRPILPSVPSWKEAEVQTWLQQIGFSKYCESFREQQVDGDLLLRLTEEELQTDLGMKSGITRKRFFRELTELKTFANYSTCDRSNLADWLGSLDPRFRQYTYGLVSCGLDRSLLHRVSEQQLLEDCGIHLGVHRARILTAAREMLHSPLPCTGGKPSGDTPDVFISYRRNSGSQLASLLKVHLQLHGFSVFIDVEKLEAGKFEDKLIQSVMGARNFVLVLSPGALDKCMQDHDCKDWVHKEIVTALSCGKNIVPIIDGFEWPEPQVLPEDMQAVLTFNGIKWSHEYQEATIEKIIRFLQGRSSRDSSAGSDTSLEGAAPMGPT
binding [1]: binds

B2: endogenous SARM1 (HEK293T) (protein, UniProt Q6SZW1 28-724)
chain: LAVPGPDGGGGTGPWWAAGGRGPREVSPGAGTEVQDALERALPELQQALSALKQAGGARAVGAGLAEVFQLVEEAWLLPAVGREVAQGLCDAIRLDGGLDLLLRLLQAPELETRVQAARLLEQILVAENRDRVARIGLGVILNLAKEREPVELARSVAGILEHMFKHSEETCQRLVAAGGLDAVLYWCRRTDPALLRHCALALGNCALHGGQAVQRRMVEKRAAEWLFPLAFSKEDELLRLHACLAVAVLATNKEVEREVERSGTLALVEPLVASLDPGRFARCLVDASDTSQGRGPDDLQRLVPLLDSNRLEAQCIGAFYLCAEAAIKSLQGKTKVFSDIGAIQSLKRLVSYSTNGTKSALAKRALRLLGEEVPRPILPSVPSWKEAEVQTWLQQIGFSKYCESFREQQVDGDLLLRLTEEELQTDLGMKSGITRKRFFRELTELKTFANYSTCDRSNLADWLGSLDPRFRQYTYGLVSCGLDRSLLHRVSEQQLLEDCGIHLGVHRARILTAAREMLHSPLPCTGGKPSGDTPDVFISYRRNSGSQLASLLKVHLQLHGFSVFIDVEKLEAGKFEDKLIQSVMGARNFVLVLSPGALDKCMQDHDCKDWVHKEIVTALSCGKNIVPIIDGFEWPEPQVLPEDMQAVLTFNGIKWSHEYQEATIEKIIRFLQGRSSRDSSAGSDTSLEGAAPMGPT
binding (GP78-Flag (human)): binds

B3: WT USP13 (myc-USP13 or USP13-HA), Q92995 1-863 (enzyme)
chain: MQRRGALFGMPGGSGGRKMAAGDIGELLVPHMPTIRVPRSGDRVYKNECAFSYDSPNSEGGLYVCMNTFLAFGREHVERHFRKTGQSVYMHLKRHVREKVRGASGGALPKRRNSKIFLDLDTDDDLNSDDYEYEDEAKLVIFPDHYEIALPNIEELPALVTIACDAVLSSKSPYRKQDPDTWENELPVSKYANNLTQLDNGVRIPPSGWKCARCDLRENLWLNLTDGSVLCGKWFFDSSGGNGHALEHYRDMGYPLAVKLGTITPDGADVYSFQEEEPVLDPHLAKHLAHFGIDMLHMHGTENGLQDNDIKLRVSEWEVIQESGTKLKPMYGPGYTGLKNLGNSCYLSSVMQAIFSIPEFQRAYVGNLPRIFDYSPLDPTQDFNTQMTKLGHGLLSGQYSKPPVKSELIEQVMKEEHKPQQNGISPRMFKAFVSKSHPEFSSNRQQDAQEFFLHLVNLVERNRIGSENPSDVFRFLVEERIQCCQTRKVRYTERVDYLMQLPVAMEAATNKDELIAYELTRREAEANRRPLPELVRAKIPFSACLQAFSEPENVDDFWSSALQAKSAGVKTSRFASFPEYLVVQIKKFTFGLDWVPKKFDVSIDMPDLLDINHLRARGLQPGEEELPDISPPIVIPDDSKDRLMNQLIDPSDIDESSVMQLAEMGFPLEACRKAVYFTGNMGAEVAFNWIIVHMEEPDFAEPLTMPGYGGAASAGASVFGASGLDNQPPEEIVAIITSMGFQRNQAIQALRATNNNLERALDWIFSHPEFEEDSDFVIEMENNANANIISEAKPEGPRVKDGSGTYELFAFISHMGTSTMSGHYICHIKKEGRWVIYNDHKVCASERPPKDLGYMYFYRRIPS
binding [2]: binds

From article PMC11749472
